Assay results reported in the supplement of paper PMC6078165.

Tested on: Hs578T
Test: relative JC-1 red fluorescence (viability) vs pre-drug, coculture with fibroblast (fraction); higher = more viable cancer cells
Method: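 JC-1 labelled TNBC cells cocultured 1:1 (1,500 cells each) with CellTrace Violet stained primary or stromal fibroblasts in 384-well plates in FluoroBrite medium, treated with one of 42 anticancer drugs at 0.1, 1, 10 or 100 uM. JC-1 red fluorescence (mitochondrial integrity in cancer cells only) was read by plate reader every 8 h for 72 h. Values are normalised to each well's pre-drug value. The stock of one drug was tenfold lower, so its dose labels may be too high.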

CC[C@]1(O)C[C@H]2CN(CCc3c([nH]c4ccccc34)[C@@](C(=O)OC)(c3cc4c(cc3OC)N(C=O)[C@H]3[C@@](O)(C(=O)OC)[C@H](OC(C)=O)[C@]5(CC)C=CCN6CC[C@]43[C@@H]65)C2)C1 [Vincristine]
relative JC-1 red fluorescence
Details	8 h	16 h	24 h	32 h	40 h	48 h	56 h	64 h	72 h
0.1 µM	0.871 ± 0.019	0.767 ± 0.022	0.71 ± 0.036	0.658 ± 0.031	0.569 ± 0.012	0.532 ± 0.016	0.514 ± 0.013	0.488 ± 0.013	0.4926 ± 0.0024
1 µM	0.927 ± 0.017	0.856 ± 0.018	0.773 ± 0.011	0.71 ± 0.032	0.62 ± 0.052	0.579 ± 0.084	0.56 ± 0.1	0.531 ± 0.11	0.541 ± 0.12

relative JC-1 red fluorescence
Details	8 h	16 h	24 h	32 h	40 h	48 h	56 h	64 h	72 h
0.1 µM, coculture fibroblast: C12385	0.831 ± 0.03	0.743 ± 0.016	0.716 ± 0.081	0.612 ± 0.07	0.547 ± 0.1	0.515 ± 0.13	0.492 ± 0.14	0.496 ± 0.17	0.506 ± 0.19
0.1 µM, coculture fibroblast: H6013	0.83347 ± 0.0001	0.789 ± 0.019	0.7605 ± 0.0037	0.72 ± 0.028	0.689 ± 0.04	0.702 ± 0.049	0.705 ± 0.054	0.728 ± 0.069	0.723 ± 0.071
0.1 µM, coculture fibroblast: H6019	0.8006 ± 0.005	0.713 ± 0.0084	0.7129 ± 0.0028	0.6324 ± 0.0033	0.607 ± 0.021	0.598 ± 0.036	0.59 ± 0.042	0.597 ± 0.038	0.597 ± 0.044
0.1 µM, coculture fibroblast: H6076	0.914 ± 0.022	0.8501 ± 0.0031	0.82 ± 0.022	0.786 ± 0.035	0.715 ± 0.07	0.721 ± 0.087	0.706 ± 0.11	0.717 ± 0.12	0.739 ± 0.14
0.1 µM, coculture fibroblast: H6231	0.862 ± 0.0089	0.762 ± 0.011	0.6771 ± 0.0061	0.6075 ± 0.0015	0.5259 ± 0.0019	0.5006 ± 0.0035	0.469 ± 0.0047	0.468 ± 0.011	0.475 ± 0.019
0.1 µM, coculture fibroblast: HADF	0.8606 ± 0.0043	0.8 ± 0.028	0.743 ± 0.028	0.7045 ± 0.0063	0.698 ± 0.013	0.69887 ± 0.00035	0.6928 ± 0.004	0.7088 ± 0.0069	0.717 ± 0.015
0.1 µM, coculture fibroblast: HCFa	0.846 ± 0.011	0.795 ± 0.014	0.744 ± 0.033	0.683 ± 0.03	0.623 ± 0.034	0.614 ± 0.039	0.597 ± 0.044	0.595 ± 0.043	0.574 ± 0.039
0.1 µM, coculture fibroblast: HCPF	0.916 ± 0.015	0.824 ± 0.033	0.755 ± 0.031	0.702 ± 0.038	0.605 ± 0.044	0.573 ± 0.034	0.538 ± 0.013	0.509 ± 0.011	0.49 ± 0.0052
0.1 µM, coculture fibroblast: HHSteC	0.8542 ± 0.002	0.825 ± 0.037	0.8 ± 0.048	0.766 ± 0.064	0.722 ± 0.072	0.696 ± 0.063	0.687 ± 0.063	0.681 ± 0.055	0.663 ± 0.042
0.1 µM, coculture fibroblast: HMF	0.8612 ± 0.0015	0.746 ± 0.016	0.689 ± 0.017	0.647 ± 0.012	0.551 ± 0.022	0.525 ± 0.038	0.502 ± 0.058	0.497 ± 0.067	0.501 ± 0.085
0.1 µM, coculture fibroblast: HPFa	0.8606 ± 0.00093	0.8259 ± 0.0024	0.768 ± 0.013	0.706 ± 0.021	0.665 ± 0.027	0.639 ± 0.033	0.605 ± 0.043	0.596 ± 0.05	0.571 ± 0.053
0.1 µM, coculture fibroblast: HUF	0.813 ± 0.028	0.708 ± 0.0093	0.682 ± 0.03	0.565 ± 0.026	0.506 ± 0.029	0.479 ± 0.033	0.456 ± 0.025	0.462 ± 0.022	0.466 ± 0.022
0.1 µM, coculture fibroblast: Hs27A	0.8737 ± 0.0068	0.85251 ± 0.0004	0.8106 ± 0.002	0.762 ± 0.01	0.709 ± 0.019	0.72 ± 0.02	0.702 ± 0.03	0.713 ± 0.043	0.699 ± 0.046
0.1 µM, coculture fibroblast: Hs343T	0.864 ± 0.034	0.745 ± 0.041	0.688 ± 0.026	0.65 ± 0.022	0.564 ± 0.0059	0.544 ± 0.019	0.517 ± 0.024	0.513 ± 0.018	0.53 ± 0.029
0.1 µM, coculture fibroblast: WS1	0.799 ± 0.041	0.683 ± 0.062	0.66 ± 0.039	0.56 ± 0.035	0.504 ± 0.019	0.491 ± 0.0026	0.457 ± 0.011	0.475 ± 0.022	0.481 ± 0.029
1 µM, coculture fibroblast: C12385	0.842 ± 0.0094	0.7321 ± 0.003	0.661 ± 0.017	0.565 ± 0.012	0.483 ± 0.013	0.452 ± 0.017	0.43 ± 0.017	0.43 ± 0.013	0.434 ± 0.012
1 µM, coculture fibroblast: H6013	0.937 ± 0.036	0.8881 ± 0.0064	0.826 ± 0.022	0.803 ± 0.041	0.761 ± 0.054	0.75 ± 0.059	0.739 ± 0.064	0.739 ± 0.062	0.719 ± 0.055
1 µM, coculture fibroblast: H6019	0.824 ± 0.029	0.745 ± 0.032	0.699 ± 0.035	0.616 ± 0.027	0.567 ± 0.013	0.549 ± 0.012	0.5264 ± 0.0044	0.517 ± 0.0075	0.509 ± 0.0066
1 µM, coculture fibroblast: H6076	0.9242 ± 0.0012	0.8515 ± 0.0075	0.7722 ± 0.0057	0.734 ± 0.021	0.664 ± 0.022	0.642 ± 0.025	0.625 ± 0.022	0.626 ± 0.017	0.629 ± 0.013
1 µM, coculture fibroblast: H6231	0.912 ± 0.034	0.818 ± 0.066	0.729 ± 0.03	0.696 ± 0.029	0.613 ± 0.024	0.569 ± 0.018	0.521 ± 0.013	0.499 ± 0.0079	0.4935 ± 0.0011
1 µM, coculture fibroblast: HADF	0.912 ± 0.027	0.8607 ± 0.0064	0.7816 ± 0.0056	0.693 ± 0.035	0.635 ± 0.054	0.59 ± 0.066	0.55 ± 0.066	0.524 ± 0.057	0.498 ± 0.051
1 µM, coculture fibroblast: HCFa	0.889 ± 0.019	0.826 ± 0.026	0.7377 ± 0.004	0.674 ± 0.011	0.606 ± 0.018	0.595 ± 0.029	0.562 ± 0.035	0.552 ± 0.035	0.524 ± 0.039
1 µM, coculture fibroblast: HCPF	0.939 ± 0.029	0.85 ± 0.031	0.785 ± 0.037	0.749 ± 0.02	0.661 ± 0.026	0.616 ± 0.015	0.576 ± 0.0033	0.535 ± 0.0031	0.52747 ± 0.00013
1 µM, coculture fibroblast: HHSteC	0.927 ± 0.014	0.887 ± 0.013	0.776 ± 0.04	0.685 ± 0.046	0.616 ± 0.048	0.583 ± 0.036	0.545 ± 0.027	0.521 ± 0.026	0.481 ± 0.025
1 µM, coculture fibroblast: HMF	0.9134 ± 0.0084	0.836 ± 0.028	0.763 ± 0.033	0.735 ± 0.037	0.645 ± 0.051	0.61 ± 0.059	0.555 ± 0.068	0.548 ± 0.063	0.545 ± 0.064
1 µM, coculture fibroblast: HPFa	0.927 ± 0.018	0.885 ± 0.042	0.764 ± 0.026	0.677 ± 0.051	0.594 ± 0.072	0.548 ± 0.081	0.501 ± 0.087	0.482 ± 0.089	0.446 ± 0.09
1 µM, coculture fibroblast: HUF	0.87 ± 0.0092	0.773 ± 0.025	0.696 ± 0.026	0.586 ± 0.016	0.509 ± 0.028	0.468 ± 0.041	0.423 ± 0.04	0.418 ± 0.044	0.412 ± 0.048
1 µM, coculture fibroblast: Hs27A	0.8943 ± 0.005	0.853 ± 0.036	0.798 ± 0.068	0.72 ± 0.079	0.65 ± 0.064	0.637 ± 0.074	0.609 ± 0.071	0.603 ± 0.077	0.567 ± 0.073
1 µM, coculture fibroblast: Hs343T	0.895 ± 0.016	0.793 ± 0.011	0.7054 ± 0.0052	0.7009 ± 0.0053	0.629 ± 0.035	0.598 ± 0.052	0.562 ± 0.05	0.553 ± 0.047	0.562 ± 0.047
1 µM, coculture fibroblast: WS1	0.836 ± 0.016	0.726 ± 0.039	0.651 ± 0.0096	0.549 ± 0.019	0.484 ± 0.0063	0.4453 ± 0.0015	0.411 ± 0.0066	0.407 ± 0.0095	0.411 ± 0.013

± gives the standard deviation of the averaged measurements. Values are relative to the signal before dosing, not to a vehicle control; the signal also falls without drug.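 Fibroblast labels denote human fibroblasts, mainly primary ones from uterus (C12385, HUF), lung (H6013), bone (Hs27A), adrenal (HADF) and skin (WS1), plus mammary HMF and breast cancer-associated Hs343T. Cancer cells are basal-like or mesenchymal-like triple-negative breast cancer lines. A hit is a response shift exceeding 3x replicate standard deviation. The tissue of the other fibroblasts is not given here.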
